Literature values, collected in patent US20110143366A1, “PROTEIN BIOMARKERS FOR IN VITRO TESTING OF DEVELOPMENTAL TOXICITY AND ENBRYOTOXICITY OF CHEMICAL SUBSTANCES” (PROTEOSYS AG, priority 2008, published 2011).

Test system: Cardiomyocytes differentiated from murine embryonic stem cells (EST model)
Settings: substances with known embryotoxic potency used in the EST model

NS(=O)(=O)c1cc(C(=O)O)c(NCc2ccco2)cc1Cl [furosemide]
Embryotoxicity class of the substance: moderately embryotoxic
